In the supplement of paper PMC10849652:
The list shows a part of the results.

Sequences of proteins named here, by UniProt entry; tags and fusion partners are left off. A change or cut given only in a name is not applied to a line headed by its entry.
UniProt P57768: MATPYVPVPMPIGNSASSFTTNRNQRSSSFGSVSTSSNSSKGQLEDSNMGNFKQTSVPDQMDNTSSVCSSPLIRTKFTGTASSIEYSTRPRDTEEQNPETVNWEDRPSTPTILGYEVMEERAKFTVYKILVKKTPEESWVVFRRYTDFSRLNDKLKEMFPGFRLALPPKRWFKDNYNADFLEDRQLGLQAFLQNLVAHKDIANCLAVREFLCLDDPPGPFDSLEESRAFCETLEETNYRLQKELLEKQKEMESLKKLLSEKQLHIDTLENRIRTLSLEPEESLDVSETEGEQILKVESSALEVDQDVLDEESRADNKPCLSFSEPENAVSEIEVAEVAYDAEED
UniProt P0C7P3: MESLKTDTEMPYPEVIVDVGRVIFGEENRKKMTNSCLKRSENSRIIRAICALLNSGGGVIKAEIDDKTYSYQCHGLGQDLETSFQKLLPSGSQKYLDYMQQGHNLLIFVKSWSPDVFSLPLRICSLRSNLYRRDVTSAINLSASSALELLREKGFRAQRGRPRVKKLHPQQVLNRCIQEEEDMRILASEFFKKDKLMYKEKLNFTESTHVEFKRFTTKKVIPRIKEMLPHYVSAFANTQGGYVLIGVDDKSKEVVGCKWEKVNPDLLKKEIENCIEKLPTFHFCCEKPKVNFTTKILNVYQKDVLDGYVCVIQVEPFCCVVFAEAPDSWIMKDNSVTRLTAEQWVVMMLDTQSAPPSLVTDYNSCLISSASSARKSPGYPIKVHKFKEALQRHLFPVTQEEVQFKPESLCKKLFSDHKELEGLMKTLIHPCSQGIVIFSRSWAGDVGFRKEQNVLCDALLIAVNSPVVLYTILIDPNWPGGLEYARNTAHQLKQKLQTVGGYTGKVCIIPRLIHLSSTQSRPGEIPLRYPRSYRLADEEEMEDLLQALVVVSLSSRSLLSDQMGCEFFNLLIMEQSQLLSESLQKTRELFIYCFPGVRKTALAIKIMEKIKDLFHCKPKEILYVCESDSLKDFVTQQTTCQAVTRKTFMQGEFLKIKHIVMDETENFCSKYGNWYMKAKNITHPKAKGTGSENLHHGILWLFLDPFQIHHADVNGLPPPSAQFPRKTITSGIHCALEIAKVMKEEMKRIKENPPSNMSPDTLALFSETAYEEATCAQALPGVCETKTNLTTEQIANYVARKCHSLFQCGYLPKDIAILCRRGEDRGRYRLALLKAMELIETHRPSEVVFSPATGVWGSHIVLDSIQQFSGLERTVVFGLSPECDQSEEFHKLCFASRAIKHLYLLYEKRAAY
UniProt Q92540: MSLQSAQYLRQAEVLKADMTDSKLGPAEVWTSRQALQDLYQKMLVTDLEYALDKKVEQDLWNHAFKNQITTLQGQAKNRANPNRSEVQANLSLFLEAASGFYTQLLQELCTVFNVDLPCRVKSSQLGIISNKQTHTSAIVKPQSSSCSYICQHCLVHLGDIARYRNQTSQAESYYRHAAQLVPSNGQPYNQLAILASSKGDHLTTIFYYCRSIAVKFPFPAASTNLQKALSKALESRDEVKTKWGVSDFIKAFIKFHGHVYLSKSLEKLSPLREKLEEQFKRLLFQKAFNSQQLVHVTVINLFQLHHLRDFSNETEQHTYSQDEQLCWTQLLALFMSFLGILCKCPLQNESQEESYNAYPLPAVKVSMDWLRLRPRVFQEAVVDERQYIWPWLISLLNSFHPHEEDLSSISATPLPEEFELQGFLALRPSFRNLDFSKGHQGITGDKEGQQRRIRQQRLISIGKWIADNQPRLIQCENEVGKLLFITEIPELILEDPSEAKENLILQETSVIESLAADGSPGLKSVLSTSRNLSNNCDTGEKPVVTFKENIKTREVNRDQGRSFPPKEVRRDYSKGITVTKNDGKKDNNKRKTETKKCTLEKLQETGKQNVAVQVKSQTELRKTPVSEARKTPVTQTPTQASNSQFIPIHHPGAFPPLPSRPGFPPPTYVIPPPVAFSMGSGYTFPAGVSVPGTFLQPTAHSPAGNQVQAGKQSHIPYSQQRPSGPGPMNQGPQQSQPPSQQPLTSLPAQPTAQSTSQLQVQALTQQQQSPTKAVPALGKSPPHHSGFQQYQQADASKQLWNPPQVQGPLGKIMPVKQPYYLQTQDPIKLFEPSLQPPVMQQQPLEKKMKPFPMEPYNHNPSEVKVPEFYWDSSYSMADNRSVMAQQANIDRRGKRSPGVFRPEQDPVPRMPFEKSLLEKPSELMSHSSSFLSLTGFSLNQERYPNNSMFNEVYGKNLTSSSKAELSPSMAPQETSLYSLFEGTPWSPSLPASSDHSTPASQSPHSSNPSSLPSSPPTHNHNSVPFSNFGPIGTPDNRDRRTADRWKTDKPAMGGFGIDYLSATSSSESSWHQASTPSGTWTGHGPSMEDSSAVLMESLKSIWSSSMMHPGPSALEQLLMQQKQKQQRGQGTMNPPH
UniProt B2RUZ4: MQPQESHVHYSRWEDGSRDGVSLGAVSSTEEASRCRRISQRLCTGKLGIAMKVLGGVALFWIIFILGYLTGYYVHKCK
UniProt Q8TEV9: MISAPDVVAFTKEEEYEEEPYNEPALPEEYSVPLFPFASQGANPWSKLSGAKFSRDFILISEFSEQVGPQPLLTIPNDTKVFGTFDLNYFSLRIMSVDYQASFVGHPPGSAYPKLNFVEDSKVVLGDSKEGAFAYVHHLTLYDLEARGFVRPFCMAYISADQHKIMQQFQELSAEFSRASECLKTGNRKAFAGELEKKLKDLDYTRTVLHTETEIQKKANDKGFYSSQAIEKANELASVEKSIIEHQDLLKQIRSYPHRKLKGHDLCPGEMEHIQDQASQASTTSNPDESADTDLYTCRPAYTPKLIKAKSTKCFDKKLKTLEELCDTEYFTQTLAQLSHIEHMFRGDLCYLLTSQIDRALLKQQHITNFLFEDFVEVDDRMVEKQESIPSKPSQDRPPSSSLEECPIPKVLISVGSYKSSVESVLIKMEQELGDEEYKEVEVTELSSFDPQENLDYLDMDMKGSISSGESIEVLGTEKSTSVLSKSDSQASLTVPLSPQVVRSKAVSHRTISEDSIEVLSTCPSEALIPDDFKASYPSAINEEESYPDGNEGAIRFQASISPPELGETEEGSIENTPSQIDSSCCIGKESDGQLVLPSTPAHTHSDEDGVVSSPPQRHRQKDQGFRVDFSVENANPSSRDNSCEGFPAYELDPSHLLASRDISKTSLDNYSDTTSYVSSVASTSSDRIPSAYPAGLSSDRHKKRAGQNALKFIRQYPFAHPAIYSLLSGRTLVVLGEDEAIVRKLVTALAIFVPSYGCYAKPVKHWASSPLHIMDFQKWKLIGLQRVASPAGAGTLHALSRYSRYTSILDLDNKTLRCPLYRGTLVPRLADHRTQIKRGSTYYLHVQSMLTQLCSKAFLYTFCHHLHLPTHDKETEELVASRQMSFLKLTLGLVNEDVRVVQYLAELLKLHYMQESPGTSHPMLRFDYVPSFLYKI
UniProt Q7Z3B0: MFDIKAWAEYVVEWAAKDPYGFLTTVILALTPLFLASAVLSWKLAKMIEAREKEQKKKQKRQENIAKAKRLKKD
UniProt P19634, whole entry, looked up: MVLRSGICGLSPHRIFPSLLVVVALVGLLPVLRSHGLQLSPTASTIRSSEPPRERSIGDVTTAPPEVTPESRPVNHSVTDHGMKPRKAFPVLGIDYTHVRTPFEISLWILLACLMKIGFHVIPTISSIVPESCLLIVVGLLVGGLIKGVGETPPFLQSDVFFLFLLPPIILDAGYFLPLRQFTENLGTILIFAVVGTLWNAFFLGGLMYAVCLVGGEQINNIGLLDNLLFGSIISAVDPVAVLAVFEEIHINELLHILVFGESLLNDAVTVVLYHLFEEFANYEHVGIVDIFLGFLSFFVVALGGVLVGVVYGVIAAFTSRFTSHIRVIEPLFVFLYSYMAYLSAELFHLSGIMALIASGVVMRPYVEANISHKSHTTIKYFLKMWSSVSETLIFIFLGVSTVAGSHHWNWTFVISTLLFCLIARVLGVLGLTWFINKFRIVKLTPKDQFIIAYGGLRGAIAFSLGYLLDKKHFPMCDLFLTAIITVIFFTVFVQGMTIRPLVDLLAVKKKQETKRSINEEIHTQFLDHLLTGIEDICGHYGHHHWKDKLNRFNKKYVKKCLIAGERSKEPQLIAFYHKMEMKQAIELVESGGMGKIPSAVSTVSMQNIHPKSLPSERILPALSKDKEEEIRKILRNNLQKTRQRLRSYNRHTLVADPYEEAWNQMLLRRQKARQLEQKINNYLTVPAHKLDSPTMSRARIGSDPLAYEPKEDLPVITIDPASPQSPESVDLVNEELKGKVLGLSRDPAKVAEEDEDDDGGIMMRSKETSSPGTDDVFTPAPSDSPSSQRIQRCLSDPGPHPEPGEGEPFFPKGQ
UniProt Q8WVI0: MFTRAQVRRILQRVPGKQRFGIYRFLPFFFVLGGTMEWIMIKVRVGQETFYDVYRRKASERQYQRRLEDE
UniProt Q13424: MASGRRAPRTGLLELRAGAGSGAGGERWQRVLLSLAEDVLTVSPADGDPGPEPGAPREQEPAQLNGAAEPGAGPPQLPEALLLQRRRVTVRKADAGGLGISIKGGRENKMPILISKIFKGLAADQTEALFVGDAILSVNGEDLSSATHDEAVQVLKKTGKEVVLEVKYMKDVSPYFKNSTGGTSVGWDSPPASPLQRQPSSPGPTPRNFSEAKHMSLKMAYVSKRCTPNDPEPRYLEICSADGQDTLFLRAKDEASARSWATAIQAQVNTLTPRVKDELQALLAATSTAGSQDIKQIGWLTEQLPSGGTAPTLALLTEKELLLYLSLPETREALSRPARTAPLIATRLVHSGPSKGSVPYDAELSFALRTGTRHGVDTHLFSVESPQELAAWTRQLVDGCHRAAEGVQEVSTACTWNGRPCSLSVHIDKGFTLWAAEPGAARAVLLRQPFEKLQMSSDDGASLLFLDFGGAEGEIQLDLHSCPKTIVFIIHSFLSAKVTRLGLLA
UniProt Q02446, whole entry, looked up: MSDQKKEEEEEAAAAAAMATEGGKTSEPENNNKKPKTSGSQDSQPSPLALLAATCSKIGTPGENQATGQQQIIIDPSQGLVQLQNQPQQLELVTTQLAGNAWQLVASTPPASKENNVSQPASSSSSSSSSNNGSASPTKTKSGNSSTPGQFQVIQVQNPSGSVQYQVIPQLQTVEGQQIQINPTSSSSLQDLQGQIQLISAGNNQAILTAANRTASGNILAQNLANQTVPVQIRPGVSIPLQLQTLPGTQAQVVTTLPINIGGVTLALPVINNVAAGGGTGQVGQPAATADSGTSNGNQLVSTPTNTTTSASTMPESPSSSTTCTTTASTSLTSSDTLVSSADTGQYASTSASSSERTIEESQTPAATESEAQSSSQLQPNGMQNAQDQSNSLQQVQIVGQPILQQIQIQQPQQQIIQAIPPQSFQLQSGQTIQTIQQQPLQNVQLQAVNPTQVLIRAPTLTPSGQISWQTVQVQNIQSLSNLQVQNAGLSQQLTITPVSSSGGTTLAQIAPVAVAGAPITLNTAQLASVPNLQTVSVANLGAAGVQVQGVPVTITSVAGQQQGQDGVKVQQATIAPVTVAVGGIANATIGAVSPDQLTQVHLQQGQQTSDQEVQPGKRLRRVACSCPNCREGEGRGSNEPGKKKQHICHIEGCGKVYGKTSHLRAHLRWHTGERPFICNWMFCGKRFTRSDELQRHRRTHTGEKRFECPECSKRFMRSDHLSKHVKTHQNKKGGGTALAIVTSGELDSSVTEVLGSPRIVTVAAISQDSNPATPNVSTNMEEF
UniProt P58511: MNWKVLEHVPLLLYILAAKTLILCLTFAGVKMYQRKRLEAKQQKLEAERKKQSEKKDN
UniProt O75971: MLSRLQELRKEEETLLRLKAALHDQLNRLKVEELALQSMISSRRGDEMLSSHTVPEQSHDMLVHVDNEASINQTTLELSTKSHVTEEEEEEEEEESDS

These targets were tested with CC1=C(C(CC(=O)N1)C2=CC=C(C=C2)C(F)(F)F)C(=O)NC3=C(C=C4C(=C3)C=NN4)F (assay: log2 fold change, soluble protein after heating vs DMSO (PISA); higher = thermal stabilisation; K562 cells, 10 uM, 30 min; active = over 0.2 and 3.5 SD of the protein, either way, in both replicates (recomputed)).
How it was run: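 Soluble protein was defined as the supernatant after 21,000xg for 90 min. It came from K562 cells at 2×10^6 cells/mL given 10 μM compound for 30 min, heated in aliquots for 3 min across 48°C-58°C, pooled, and extracted in PBS with 0.5% NP-40 at 4°C, and was quantified by TMTpro 16plex LC-MS/MS with equalised channel sums. Thermal stability against control samples, from duplicates, is reported as log2 fold change.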

Question: How did the log2 fold change turn out when SNX16 (UniProt P57768) was run?
Answer: inactive: 0.126

Question: Which log2 fold change does the source give for SNX25 (UniProt Q9H3E2) here?
Answer: inactive: -0.236

Question: SLFN14 (UniProt P0C7P3) was tested. Which log2 fold change did it give?
Answer: inactive: 0.025

Question: How did the log2 fold change turn out when SMG7 isoform 4 (UniProt Q92540) was run?
Answer: inactive: -0.086

Question: SMIM1 (UniProt B2RUZ4) was tested. Which log2 fold change did it give?
Answer: inactive: 0.07

Question: SMCR8 (UniProt Q8TEV9) was tested. Which log2 fold change did it give?
Answer: inactive: -0.003

Question: SMIM15 (UniProt Q7Z3B0) was tested. Which log2 fold change did it give?
Answer: inactive: -0.155

Question: How did the log2 fold change turn out when SLC9A1 (UniProt P19634) was run?
Answer: inactive: -0.052

Question: For SMIM4 (UniProt Q8WVI0), which log2 fold change is on record?
Answer: inactive: -0.02

Question: For SNTA1 (UniProt Q13424), which log2 fold change is on record?
Answer: inactive: -0.086

Question: How did the log2 fold change turn out when SP4 (UniProt Q02446) was run?
Answer: inactive: 0.215

Question: Which log2 fold change does the source give for SMIM11A (UniProt P58511) here?
Answer: inactive: -0.071

Question: Which log2 fold change does the source give for SNAPC5 (UniProt O75971) here?
Answer: inactive: 0.242

Question: For SNRPD2 (UniProt K7EJB5), which log2 fold change is on record?
Answer: inactive: 0.026
